Results published in paper PMC7372886.
These are yes or no findings as the source states them, for the method shown. In cells and extracts the contact can be indirect. Here binding means that the protein was enriched with, or labelled near, the bait; the list need not be complete.

Protein sequences, listed by entry. Tags and fused reporters are not part of them. Lines headed by an entry give the natural chain unless they say otherwise; changes in a name come on top.
UniProt P49327: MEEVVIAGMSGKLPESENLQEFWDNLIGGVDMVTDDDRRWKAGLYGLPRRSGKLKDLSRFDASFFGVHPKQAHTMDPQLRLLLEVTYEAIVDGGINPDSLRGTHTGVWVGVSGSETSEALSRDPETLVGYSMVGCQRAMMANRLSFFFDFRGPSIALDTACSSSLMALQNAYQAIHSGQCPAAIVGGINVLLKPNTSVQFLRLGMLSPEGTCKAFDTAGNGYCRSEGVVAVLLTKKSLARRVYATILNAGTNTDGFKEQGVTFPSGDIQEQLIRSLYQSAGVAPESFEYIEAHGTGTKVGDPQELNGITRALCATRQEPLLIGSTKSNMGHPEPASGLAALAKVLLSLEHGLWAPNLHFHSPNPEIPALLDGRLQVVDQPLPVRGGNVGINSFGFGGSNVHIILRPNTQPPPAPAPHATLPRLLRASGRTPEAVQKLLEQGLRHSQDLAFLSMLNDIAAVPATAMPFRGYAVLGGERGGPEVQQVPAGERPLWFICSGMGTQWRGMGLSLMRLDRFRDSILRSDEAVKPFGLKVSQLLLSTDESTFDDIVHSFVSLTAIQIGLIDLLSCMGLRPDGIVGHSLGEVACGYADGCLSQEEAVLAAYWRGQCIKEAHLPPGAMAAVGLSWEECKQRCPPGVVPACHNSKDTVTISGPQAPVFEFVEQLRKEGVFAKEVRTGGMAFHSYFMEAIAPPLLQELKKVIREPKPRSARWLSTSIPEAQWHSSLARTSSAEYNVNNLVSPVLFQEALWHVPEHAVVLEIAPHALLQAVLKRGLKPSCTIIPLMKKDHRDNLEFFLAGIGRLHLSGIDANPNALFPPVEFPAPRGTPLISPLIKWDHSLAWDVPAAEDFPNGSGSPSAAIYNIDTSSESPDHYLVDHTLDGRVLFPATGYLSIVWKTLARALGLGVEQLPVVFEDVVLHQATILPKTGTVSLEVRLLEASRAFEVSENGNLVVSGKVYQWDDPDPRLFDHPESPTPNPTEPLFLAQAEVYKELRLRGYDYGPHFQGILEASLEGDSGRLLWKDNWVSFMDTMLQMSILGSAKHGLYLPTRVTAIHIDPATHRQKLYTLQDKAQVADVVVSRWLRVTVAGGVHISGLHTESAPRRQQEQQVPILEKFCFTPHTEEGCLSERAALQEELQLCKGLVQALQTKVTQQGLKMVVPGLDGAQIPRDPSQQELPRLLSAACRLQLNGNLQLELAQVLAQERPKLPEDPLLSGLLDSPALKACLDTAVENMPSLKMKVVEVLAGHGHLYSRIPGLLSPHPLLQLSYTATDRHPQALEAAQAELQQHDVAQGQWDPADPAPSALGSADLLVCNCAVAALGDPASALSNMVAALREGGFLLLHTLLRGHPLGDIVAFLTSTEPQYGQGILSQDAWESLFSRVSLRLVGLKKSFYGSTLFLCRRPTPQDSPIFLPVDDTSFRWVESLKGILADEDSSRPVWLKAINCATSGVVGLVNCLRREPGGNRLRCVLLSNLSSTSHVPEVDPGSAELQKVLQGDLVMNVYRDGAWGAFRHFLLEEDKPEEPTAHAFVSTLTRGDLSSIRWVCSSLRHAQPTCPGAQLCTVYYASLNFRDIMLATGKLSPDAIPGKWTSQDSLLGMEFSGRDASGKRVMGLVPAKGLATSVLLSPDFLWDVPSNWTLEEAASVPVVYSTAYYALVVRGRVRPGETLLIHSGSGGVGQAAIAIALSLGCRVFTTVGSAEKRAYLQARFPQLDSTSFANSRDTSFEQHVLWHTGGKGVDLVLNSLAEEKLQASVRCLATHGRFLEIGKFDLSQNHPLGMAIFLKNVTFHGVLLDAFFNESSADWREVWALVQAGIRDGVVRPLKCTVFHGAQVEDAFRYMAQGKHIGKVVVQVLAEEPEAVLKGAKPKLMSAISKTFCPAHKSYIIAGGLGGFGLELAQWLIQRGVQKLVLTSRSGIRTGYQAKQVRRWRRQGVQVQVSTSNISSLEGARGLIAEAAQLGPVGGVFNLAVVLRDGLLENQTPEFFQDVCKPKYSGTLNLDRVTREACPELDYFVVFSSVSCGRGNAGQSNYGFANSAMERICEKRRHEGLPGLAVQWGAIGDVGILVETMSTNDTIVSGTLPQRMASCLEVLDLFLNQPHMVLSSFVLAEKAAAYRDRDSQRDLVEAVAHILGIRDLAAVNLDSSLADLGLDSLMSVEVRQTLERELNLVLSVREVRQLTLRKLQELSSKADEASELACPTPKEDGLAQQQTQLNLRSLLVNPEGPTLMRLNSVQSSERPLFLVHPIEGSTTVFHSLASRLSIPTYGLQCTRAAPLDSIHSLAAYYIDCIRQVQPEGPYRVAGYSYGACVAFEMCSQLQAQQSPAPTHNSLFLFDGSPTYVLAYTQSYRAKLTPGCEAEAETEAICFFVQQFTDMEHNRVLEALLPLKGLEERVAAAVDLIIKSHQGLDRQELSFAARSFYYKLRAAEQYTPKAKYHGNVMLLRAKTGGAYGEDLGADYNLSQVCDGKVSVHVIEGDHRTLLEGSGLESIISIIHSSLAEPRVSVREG
UniProt O15020: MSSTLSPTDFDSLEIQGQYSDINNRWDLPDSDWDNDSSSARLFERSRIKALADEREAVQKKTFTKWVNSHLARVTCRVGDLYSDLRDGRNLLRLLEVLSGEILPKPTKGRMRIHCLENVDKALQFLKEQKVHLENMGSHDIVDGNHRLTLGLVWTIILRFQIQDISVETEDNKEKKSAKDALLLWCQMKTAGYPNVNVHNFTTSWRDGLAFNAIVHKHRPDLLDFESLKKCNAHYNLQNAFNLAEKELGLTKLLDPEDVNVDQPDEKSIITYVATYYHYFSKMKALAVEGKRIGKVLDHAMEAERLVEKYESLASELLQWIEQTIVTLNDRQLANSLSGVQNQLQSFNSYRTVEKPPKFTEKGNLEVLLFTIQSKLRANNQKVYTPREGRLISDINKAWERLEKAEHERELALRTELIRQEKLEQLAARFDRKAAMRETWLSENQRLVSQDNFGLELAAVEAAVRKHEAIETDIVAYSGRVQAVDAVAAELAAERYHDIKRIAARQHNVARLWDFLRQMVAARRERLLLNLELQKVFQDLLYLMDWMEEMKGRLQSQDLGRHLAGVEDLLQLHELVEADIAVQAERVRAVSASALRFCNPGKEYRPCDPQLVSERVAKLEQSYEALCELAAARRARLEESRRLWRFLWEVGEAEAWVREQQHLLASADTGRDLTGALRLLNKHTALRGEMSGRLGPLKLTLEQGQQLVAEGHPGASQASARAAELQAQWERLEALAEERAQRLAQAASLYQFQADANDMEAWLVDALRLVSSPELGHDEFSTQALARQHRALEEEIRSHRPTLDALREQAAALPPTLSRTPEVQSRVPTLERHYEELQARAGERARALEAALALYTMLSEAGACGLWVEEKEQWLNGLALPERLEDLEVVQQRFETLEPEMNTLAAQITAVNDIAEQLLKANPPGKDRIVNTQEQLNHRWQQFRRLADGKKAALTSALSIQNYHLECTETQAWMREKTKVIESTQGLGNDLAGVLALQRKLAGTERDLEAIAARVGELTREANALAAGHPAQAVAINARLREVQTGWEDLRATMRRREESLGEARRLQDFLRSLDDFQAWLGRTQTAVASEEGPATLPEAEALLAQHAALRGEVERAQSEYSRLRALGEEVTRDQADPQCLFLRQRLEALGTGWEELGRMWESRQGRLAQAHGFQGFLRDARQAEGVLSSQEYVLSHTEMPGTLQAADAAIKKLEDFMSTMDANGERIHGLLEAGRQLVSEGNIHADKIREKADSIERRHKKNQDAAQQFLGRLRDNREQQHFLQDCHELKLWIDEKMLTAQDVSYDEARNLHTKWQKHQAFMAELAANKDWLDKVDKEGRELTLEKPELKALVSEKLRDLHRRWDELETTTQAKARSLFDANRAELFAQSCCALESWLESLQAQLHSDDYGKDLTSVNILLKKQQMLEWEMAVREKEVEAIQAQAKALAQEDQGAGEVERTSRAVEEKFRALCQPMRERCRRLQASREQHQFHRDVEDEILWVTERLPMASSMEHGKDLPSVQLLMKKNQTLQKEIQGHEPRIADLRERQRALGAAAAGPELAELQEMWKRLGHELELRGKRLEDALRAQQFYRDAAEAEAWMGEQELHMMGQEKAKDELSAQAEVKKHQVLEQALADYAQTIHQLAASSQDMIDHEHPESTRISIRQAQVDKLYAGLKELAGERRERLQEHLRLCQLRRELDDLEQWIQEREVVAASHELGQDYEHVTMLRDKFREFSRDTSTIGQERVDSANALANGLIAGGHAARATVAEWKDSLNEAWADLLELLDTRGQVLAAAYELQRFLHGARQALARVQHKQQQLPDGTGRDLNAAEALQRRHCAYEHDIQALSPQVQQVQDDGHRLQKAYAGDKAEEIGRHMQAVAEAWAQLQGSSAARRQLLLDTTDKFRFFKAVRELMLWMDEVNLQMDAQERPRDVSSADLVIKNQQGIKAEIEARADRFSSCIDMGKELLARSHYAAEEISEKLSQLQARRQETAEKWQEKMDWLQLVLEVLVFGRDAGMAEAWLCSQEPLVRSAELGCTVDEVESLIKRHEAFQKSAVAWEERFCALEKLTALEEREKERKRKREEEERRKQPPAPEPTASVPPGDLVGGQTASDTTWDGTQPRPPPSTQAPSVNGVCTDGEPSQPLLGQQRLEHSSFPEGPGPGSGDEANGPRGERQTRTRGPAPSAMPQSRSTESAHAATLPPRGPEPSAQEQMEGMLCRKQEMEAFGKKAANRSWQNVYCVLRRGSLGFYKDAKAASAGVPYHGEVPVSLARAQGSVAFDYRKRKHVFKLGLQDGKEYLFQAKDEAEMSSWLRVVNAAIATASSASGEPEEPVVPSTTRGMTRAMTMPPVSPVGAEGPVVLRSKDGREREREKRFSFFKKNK
UniProt Q562M3: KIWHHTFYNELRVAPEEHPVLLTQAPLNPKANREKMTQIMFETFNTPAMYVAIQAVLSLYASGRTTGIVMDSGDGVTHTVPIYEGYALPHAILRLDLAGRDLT
UniProt O95466: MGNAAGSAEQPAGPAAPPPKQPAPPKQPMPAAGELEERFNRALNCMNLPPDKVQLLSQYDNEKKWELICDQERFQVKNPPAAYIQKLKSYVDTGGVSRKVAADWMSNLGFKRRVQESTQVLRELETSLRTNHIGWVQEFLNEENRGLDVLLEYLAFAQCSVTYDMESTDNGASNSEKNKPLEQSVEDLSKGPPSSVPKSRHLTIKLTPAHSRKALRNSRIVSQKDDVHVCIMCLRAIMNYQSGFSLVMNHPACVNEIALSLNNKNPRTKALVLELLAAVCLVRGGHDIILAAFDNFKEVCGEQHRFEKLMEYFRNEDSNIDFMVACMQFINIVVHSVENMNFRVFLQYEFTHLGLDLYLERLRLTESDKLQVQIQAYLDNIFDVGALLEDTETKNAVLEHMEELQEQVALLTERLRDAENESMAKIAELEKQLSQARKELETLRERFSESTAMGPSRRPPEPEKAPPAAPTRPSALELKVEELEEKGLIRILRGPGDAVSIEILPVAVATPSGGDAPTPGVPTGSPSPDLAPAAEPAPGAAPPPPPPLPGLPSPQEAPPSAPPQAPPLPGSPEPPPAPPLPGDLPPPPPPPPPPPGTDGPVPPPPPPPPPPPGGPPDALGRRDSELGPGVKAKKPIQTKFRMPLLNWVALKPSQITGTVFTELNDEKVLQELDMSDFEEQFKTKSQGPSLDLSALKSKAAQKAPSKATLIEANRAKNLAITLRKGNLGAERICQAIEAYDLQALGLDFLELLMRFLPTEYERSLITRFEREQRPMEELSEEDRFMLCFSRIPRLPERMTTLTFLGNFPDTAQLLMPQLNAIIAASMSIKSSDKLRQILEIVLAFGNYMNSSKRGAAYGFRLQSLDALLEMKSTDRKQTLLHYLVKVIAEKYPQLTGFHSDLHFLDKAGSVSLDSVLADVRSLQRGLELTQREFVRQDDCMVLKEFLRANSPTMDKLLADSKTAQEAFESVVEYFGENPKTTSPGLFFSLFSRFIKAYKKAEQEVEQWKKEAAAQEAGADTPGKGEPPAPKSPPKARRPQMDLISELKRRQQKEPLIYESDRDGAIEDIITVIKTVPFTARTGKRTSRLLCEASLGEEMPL
UniProt P67936: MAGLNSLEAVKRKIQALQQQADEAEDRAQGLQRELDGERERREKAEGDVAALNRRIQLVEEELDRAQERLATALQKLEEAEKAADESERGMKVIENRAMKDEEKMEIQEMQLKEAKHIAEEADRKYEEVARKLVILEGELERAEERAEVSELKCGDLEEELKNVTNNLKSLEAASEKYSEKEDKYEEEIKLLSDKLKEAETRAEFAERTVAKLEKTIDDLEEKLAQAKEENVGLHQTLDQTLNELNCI

Target: Fatty acid synthase (human (endogenous in HepG2 and SMMC7721)) (UniProt P49327)
Experiment: affinity purification with mass spectrometry; FASN antibody and Protein A/G agarose beads on whole cell lysates of HepG2 cells transfected with control siRNA or FASN siRNA; eluted proteins iTRAQ-labelled (114, 117 against 118, 121), Nano LC ESI MS/MS

| Substance | binding |
| --- | --- |
| Guanine nucleotide-binding protein G(k) subunit alpha (from UniProt P08754 1-354) | binds |
| Alkaline phosphatase, placental type (from UniProt P05187 23-506) | binds |
| Keratin 1 (from UniProt P04264 1-644) | binds |
| Neurabin-2 (from UniProt Q96SB3 1-817) | binds |
| Spectrin beta chain, non-erythrocytic 2 (from UniProt O15020 1-2390) | binds |
| Myosin-9 (from UniProt P35579 1-1960) | binds |
| Guanine nucleotide-binding protein G(I)/G(S)/G(T) subunit beta-2 (from UniProt P62879 1-340) | binds |
| Taperin (from UniProt Q4KMQ1 1-711) | binds |
| Twinfilin-1 (from UniProt Q12792 1-350) | binds |
| Unconventional myosin-Vc (from UniProt Q9NQX4 1-1742) | binds |
| Desmoglein-2 (from UniProt Q14126 50-1118) | binds |
| Keratin, type I cytoskeletal 10 (from UniProt P13645 1-584) | binds |
| E3 ubiquitin-protein ligase TRIM21 (from UniProt P19474 1-475) | binds |
| Keratin, type II cytoskeletal 2 epidermal (from UniProt P35908 1-639) | binds |
| TBC1 domain family, member 5, isoform CRA_b (from UniProt Q92609 1-795) | binds |
| Unconventional myosin-Ib (from UniProt O43795 1-1136) | binds |
| Dedicator of cytokinesis protein 7 (from UniProt Q96N67 1-2140) | binds |
| Guanine nucleotide-binding protein G(i) subunit alpha-2 (from UniProt P04899 1-355) | binds |

Now from value to substance:

| binding | Substance |
| --- | --- |
| binds | Protein-L-isoaspartate O-methyltransferase domain-containing protein 1 (from UniProt Q96MG8 1-357) |
| binds | Drebrin (from UniProt Q16643 1-649) |
| binds | Actin-like protein (Fragment) (from UniProt Q562M3) |
| binds | PRKC apoptosis WT1 regulator protein (from UniProt Q96IZ0 1-340) |
| binds | Formin-like protein 1 (from UniProt O95466 1-1100) |
| binds | Formin-like protein 2 (from UniProt Q96PY5 1-1086) |
| binds | Spectrin alpha chain, non-erythrocytic 1 (from UniProt Q13813 1-2472) |
| binds | DERP12 (Dermal papilla derived protein 12) (from UniProt Q8TE01) |
| binds | Spectrin beta chain, non-erythrocytic 1 (from UniProt Q01082 1-2364) |
| binds | Tropomyosin beta chain (from UniProt P07951 1-284) |
| binds | Alpha-actinin-4 (from UniProt O43707 1-911) |
| binds | Uncharacterized protein KIAA1671 (from UniProt Q9BY89 1-1806) |
| binds | Laminin subunit alpha-5 (from UniProt O15230 36-3695) |
| binds | Tropomyosin alpha-4 chain (Fragment) (from UniProt P67936 1-248) |
| binds | CD109 antigen (from UniProt Q6YHK3 22-1420) |
| binds | Plastin-1 (from UniProt Q14651 1-629) |
| binds | Tropomyosin alpha-1 chain (from UniProt P09493 1-284) |
| binds | Tight junction protein ZO-1 (from UniProt Q07157 1-1748) |
| binds | Actin-binding LIM protein 1 (from UniProt O14639 1-778) |
| binds | Alpha-actinin-1 (from UniProt P12814 1-892) |
| binds | Beta-actin-like protein 2 (from UniProt Q562R1 1-376) |
| binds | Myosin-14 (from UniProt Q7Z406 1-1995) |
| binds | Myosin-10 (from UniProt P35580 1-1976) |
| binds | Supervillin (from UniProt O95425 1-2214) |
